# No constants are given. Whether binding was seen depends on the method and setting. In cells and extracts the contact can be indirect. Some results given as binding are weak or reduced against the parent protein; the word gives no strength.
# By UniProt entry, the sequences of proteins in these tests, tags left out. Residues count along the entry.
# UniProt P16070, residues 21-742: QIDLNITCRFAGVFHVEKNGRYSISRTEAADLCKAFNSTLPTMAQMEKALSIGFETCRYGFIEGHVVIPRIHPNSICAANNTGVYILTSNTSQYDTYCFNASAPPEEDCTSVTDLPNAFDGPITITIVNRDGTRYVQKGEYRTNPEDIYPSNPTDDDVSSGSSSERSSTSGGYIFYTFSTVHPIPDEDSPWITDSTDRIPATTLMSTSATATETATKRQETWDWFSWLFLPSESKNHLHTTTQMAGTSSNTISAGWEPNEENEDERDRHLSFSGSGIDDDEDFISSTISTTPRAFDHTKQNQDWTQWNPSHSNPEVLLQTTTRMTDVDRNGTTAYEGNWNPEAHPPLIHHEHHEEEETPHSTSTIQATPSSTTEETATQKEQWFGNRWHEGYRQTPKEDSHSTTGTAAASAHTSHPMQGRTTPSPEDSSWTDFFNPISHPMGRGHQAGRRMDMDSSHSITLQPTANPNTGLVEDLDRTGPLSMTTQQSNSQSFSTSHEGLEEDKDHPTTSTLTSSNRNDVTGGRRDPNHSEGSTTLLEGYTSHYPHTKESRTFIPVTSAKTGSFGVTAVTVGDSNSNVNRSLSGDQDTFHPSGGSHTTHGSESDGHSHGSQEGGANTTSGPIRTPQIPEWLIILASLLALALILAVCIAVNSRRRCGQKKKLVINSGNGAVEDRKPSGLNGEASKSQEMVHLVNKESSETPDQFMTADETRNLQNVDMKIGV
# UniProt P26022, residues 18-381: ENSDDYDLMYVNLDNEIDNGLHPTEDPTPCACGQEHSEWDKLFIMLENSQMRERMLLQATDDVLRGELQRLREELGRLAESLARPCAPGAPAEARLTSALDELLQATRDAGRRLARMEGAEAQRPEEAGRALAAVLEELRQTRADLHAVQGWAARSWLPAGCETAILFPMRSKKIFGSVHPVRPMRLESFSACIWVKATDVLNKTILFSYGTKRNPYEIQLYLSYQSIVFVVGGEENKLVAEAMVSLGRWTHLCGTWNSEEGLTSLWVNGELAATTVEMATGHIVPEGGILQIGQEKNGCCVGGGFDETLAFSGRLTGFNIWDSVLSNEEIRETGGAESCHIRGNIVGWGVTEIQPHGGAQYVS
# Biological target: CD44 on HFL1 cells (human (endogenous in HFL1)) (UniProt P16070)
# Test: proximity ligation; HFL1 cells on coverslips treated with or without 100 ng/ml His-PTX3 for 1 h, fixed with 4% paraformaldehyde; in situ PLA with anti-His and anti-CD44 (active form) antibodies; puncta per cell counted; only the binder purified
substance,measurement,value
His‐PTX3 fusion protein (from UniProt P26022 18-381) (ligand),binding,binds

# — publication PMC9637652
